From patent publication US7994133B2, “Isozyme-specific antagonists of protein kinase C” (The Board of Trustees of the Leland Stanford Junior …, priority 2003, dated 2011)
Numbering of substitutions follows the chain as printed.

B1: D(86)A: εPKC mutant wherein D at position 86 of ΨεRACK on εPKC is substituted with an A (protein)
chain: MVVFNGLLKIKICEAVSLKPTAWSLRHAVGPRPATFLLDPYIALNVDDSRIGQTATKQKTNSPAWHDEFVTDVCNGRKIELAVFHAAPIGYDDFVANCTIQFEELLQNGSRHFEDWIDLEPEGRVYVIIDLSGSSGEAPKDNEERVFRERMRPRKRQGAVRRRVHQVNGHKFMATYLRQPTYCSHCRDFIWGVIGKQGYQCQVCTCVVHKRCHELIITKCAGLKKQETPDQVGSQRFSVNMPHKFGIHNYKVPTFCDHCGSLLWGLLRQGLQCKVCKMNVHRRCETNVAPNCGVDARGIAKVLADLGVTPDKITNSGQRRKKLIAGAESPQPASGGSPSEEDRSKSAPTSPCDQEIKELENNIRKALSFDNRGEEHRAASSPDGQLMSPGENGEVRQGQAKRLGLDEFNFIKVLGKGSFGKVMLAELKGKDEVYAVKVLKKDVILQDDDVDCTMTEKRILALARKHPYLTQLYCCFQTKDRLFFVMEYVNGGDLMFQIQRSRKFDEPRSRFYAAEVTSALMFLHQHGVIYRDLKLDNILLDAEGHCKLADFGMCKEGILNGVTTTTFCGTPDYIAPEILQELEYGPSVDWWALGVLMYEMMAGQPPFEADNEDDLFESILHDDVLYPVWLSKEAVSILKAFMTKNPHKRLGCVASQNGEDAIKQHPFFKEIDWVLLEQKKIKPPFKPRIKTKRDVNNFDQDFTREEPVLTLVDEAIVKQINQEEFKGFSYFGEDLMP
B2: D(86)N: εPKC mutant wherein D at position 86 of ΨεRACK in εPKC is substituted with an N (protein)
chain: B1 chain with A86N
B3: Wt: wild type εPKC, human construct (protein)
chain: B1 chain with A86D

Experiments:
[1] = Fluorescence recovery after photobleaching (FRAP) of cytoplasmic εPKCs; format: cell-based; settings: (F∞−F0)/(Fi−F0), averages of at least 10 cells
Protocol: CHO cells were grown on glass coverslips, and serum-starved as described in Example 4. For each experiment, cells were transferred to a commercially available metal coverslip holder (Molecular Probes) in which the coverslip formed the bottom of a 1 ml bath. The media was then replaced with extracellular buffer (120 mM NaCl, 5 mM KCl, 1.5 mM CaCl2, 1.5 mM MgCl2, 20 mM HEPES and 30 mM glucose). Cells were stimulated by either PMA (100 nM), or with ATP (1 mM) in extracellular buffer. Fluorescence images of GFP-tagged constructs were obtained using the 488 nm excitation line of a laser scanning confocal microscope (Pascal, Zeiss) and emission was collected through a 505-550 nm band pass filter. Cells were imaged on the stage of an inverted microscope (Axiovert 100M) using a 40× Zeiss Plan-apo oil immersion objective with 1.2 numerical aperture (NA). For dual color imaging of CFP and YFP fusion proteins, a spinning disk Nipkow confocal microscope was used. Cells were viewed using an inverted Olympus IX70 microscope with a 40× oil immersion Olympus objective (1.35NA) and images were acquired with a CCD camera (Hamamatsu) and 2×2 pixel binning. […] Under these conditions, and by placing an iris in the beam path, it was possible to bleach 80% of the YFP fluorescence in 500 ms in an area of the cytosol measuring approximately 35 um2. […] Images were exported as 12 or 16 bit files and changes in fluorescence intensity were measured using MetaMorph® data analysis software (Universal Imaging Corp.). To monitor the translocation of PKC, a small region of interest was selected in the cytosol of each cell and fluorescence intensity values graphed against time after subtraction of background values and normalized so that the initial fluorescence was 100%. […]
Different translocation rates may reflect differences in overall mobility (diffusion) of the εPKCs in cells. Therefore, fluorescence recovery after photobleaching (FRAP) of the cytoplasmic enzyme was measured; mobility of εPKCs was measured by monitoring the time required for the fluorescence to recover in a bleached region. […]

Arg C = settings: for susceptibility to degradation by Arg C compared to Wt: insect cell-expressed εPKC, room temperature

Molecule	mobile fraction [1]	susceptibility to degradation by Arg C compared to Wt (Arg C)	time required for the same extent of degradation as D(86)A or Wt (Arg C; Arg C)
B1	63±4%	did not alter susceptibility	
B2	64±2.5%	significantly more resistant to proteolysis	twice the time
B3	63±2%		
